Laboratory results reported in PubChem BioAssay AID1487 (National Center for Advancing Translational Sciences (NCATS), 2009).
Some of the results follow. Further columns of the screen follow, without active or inactive calls. Compounds called inactive in the main read-out are mostly missing here. Potencies come from curve fits of mixed quality, noted in brackets.

Assay: qHTS Assay for Modulators of Lamin A Splicing
Conditions: HeLa LMNA splicing GFP/RFP minigene ratio, 48 h
How it was run: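 Read-out is the ratio of GFP to DsRed2 object intensity, acquired by 488 nm laser-scanning cytometry on HeLa lamin A-EGFP minigene reporter cells. Compound incubation 48 hrs at 37 °C in Opti-MEM with 2% FBS; DMSO 0.5% final.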

[1] = measured here: RFP viability control channel
[2] = measured here: GFP splicing reporter channel

Compound | AC50 [1] | AC50 [2]
OCCN1CCN(CC(O)C(F)(F)F)CC1 (stereo not given) | 0.355 µM [rising, partial curve] | –
CN1CCC(N(C)C(=O)CCc2nc3ccccc3n2-c2ccccc2)CC1 | 5.62 µM [falling, single point] | –
CCCCCCC(C)n1cc(C(C)=O)c(=O)n(C)c1=O (stereo not given) | 35.5 µM [rising, single point] | –
Cc1c(C(=O)O)oc2c1/C(=N\O)CC(C)(C)C2 | 0.0224 µM [rising, full curve, poor fit] | 14.1 µM [rising, single point]
CN1C(=O)/C(=C/c2ccccc2OCc2ccc(F)cc2)N(C)C1=S | 0.112 µM [rising, full curve, poor fit] | –
Cc1ccc(CN2CCc3c(OCC(=O)Nc4cccc(C)c4C)cccc3C2=O)cc1 | 0.794 µM [rising, partial curve] | 1.41 µM [rising, partial curve, poor fit]
Oc1c(C(c2ccco2)N2CCN(C(c3ccccc3)c3ccccc3)CC2)sc2ncnn12 (stereo not given) | 35.5 µM [rising, single point] | 35.5 µM [rising, single point]
CCOC(=O)Cn1c(=O)n(C2CCCCC2)c2nc(-c3c(F)cccc3Cl)nc(C(N)=O)c21 | 3.55 µM [rising, partial curve] | 12.6 µM [rising, single point]
CN1CCN(C(=O)c2ccccc2Nc2ccc(SC(F)F)cc2)CC1 | 35.5 µM [rising, single point] | 14.1 µM [rising, single point]
COc1cc(C(=O)Nc2nc(-c3ccc(C)cc3)cs2)ccc1OCC(=O)N1CCOCC1 | 20 µM [rising, single point] | 12.6 µM [rising, single point]
O=C(Nc1ccccc1C(F)(F)F)N1CCC(n2c(=O)[nH]c3ccccc32)CC1 | 11.2 µM [rising, partial curve, poor fit] | –
CCN(CC)S(=O)(=O)c1ccc(Cl)c(C(=O)Oc2cccc(-c3cnc4ccccc4n3)c2)c1 | 6.31 µM [rising, single point] | –
COc1ccc(C(=O)Nc2ccc(N3CCCCC3)cc2)cc1Br | – | 3.16 µM [rising, full curve, poor fit]
C/C(=N/Nc1nc(-c2ccccc2)cc(-c2ccc(F)cc2)n1)c1cccc(N)c1 | 12.6 µM [rising, partial curve] | –
Cc1cccc(Oc2cnn(C(C)(C)C)c(=O)c2Cl)c1 | 35.5 µM [rising, single point] | –
Cc1ccc(NC(=O)CSc2nnc(-c3cccnc3)n2CCN2CCCCC2)cc1 | 35.5 µM [rising, single point] | 35.5 µM [rising, single point]
Cc1ccc(NC(=O)OCCN2CCN(Cc3ccccc3)CCC2=O)cc1C | 22.4 µM [rising, single point] | 31.6 µM [rising, single point]
COc1ccccc1C(=O)Nc1sc(Nc2ccccc2)nc1C(N)=O | – | 4.47 µM [falling, full curve]
C/C(=N\Nc1cc(N2CCOCC2)nc(C)n1)c1cccc([N+](=O)[O-])c1 | 0.00316 µM [falling, full curve, poor fit] | –
Cc1ccc(CCC(=O)Nc2ncc(Cc3cc(Cl)ccc3Cl)s2)o1 | 2.82 µM [rising, full curve] | 3.55 µM [rising, full curve]
COC(=O)/C=C/S(=O)(=O)c1ccc(NC(C)=O)cc1 | 14.1 µM [falling, partial curve] | –
CC(C)CC(NC(=O)c1ccc(C#CC(C)(C)O)s1)C(=O)O (stereo not given) | – | 0.0282 µM [rising, full curve, poor fit]
CCCCC(=O)Nc1sc2c(c1C(=O)OCC)CCC(C=O)=C2Cl | 10 µM [falling, partial curve, poor fit] | 3.55 µM [falling, full curve]
O=C(NCc1cccs1)C(=O)NCC(c1ccco1)N1CCN(c2ccc(F)cc2)CC1 (stereo not given) | 6.31 µM [falling, partial curve, poor fit] | 6.31 µM [falling, partial curve]
Cc1ccc(NC(=O)CCC(=O)N/N=C/c2cc([N+](=O)[O-])ccc2O)cc1 | 31.6 µM [rising, single point] | –
COC(=O)CNC(=O)C(CCSC)NC(C)=O (stereo not given) | – | 25.1 µM [rising, partial curve, poor fit]
CN1CCN(c2ncnc3ccc(-c4cccnc4)cc23)CC1 | 14.1 µM [falling, single point] | 11.2 µM [falling, partial curve]

Two records picked at random from the list so far, as already listed:
Compound | AC50 [1] | AC50 [2]
CCOC(=O)Cn1c(=O)n(C2CCCCC2)c2nc(-c3c(F)cccc3Cl)nc(C(N)=O)c21 | 3.55 µM [rising, partial curve] | 12.6 µM [rising, single point]
Cc1c(C(=O)O)oc2c1/C(=N\O)CC(C)(C)C2 | 0.0224 µM [rising, full curve, poor fit] | 14.1 µM [rising, single point]

Further entries:

Compound | AC50 [1] | AC50 [2]
N[C@@H](Cc1cc(I)c(Oc2cc(I)c(O)c(I)c2)c(I)c1)C(=O)O | 0.708 µM [falling, single point] | 35.5 µM [falling, single point]
O=C(NCC1CCCO1)c1ccc(COc2ccccc2Br)cc1 (stereo not given) | – | 31.6 µM [rising, single point]
COc1ccc(CNC(=O)c2c(C)nc3ccccn23)cc1 | 22.4 µM [rising, partial curve] | –
COc1ccc(NC(=O)Cc2coc3ccc4ccccc4c23)cc1S(=O)(=O)N1CCOCC1 | 35.5 µM [rising, single point] | –
Cc1ccc(C(NC(=O)c2ccccc2)C(Cl)(Cl)Cl)cc1 (stereo not given) | 17.8 µM [rising, single point] | 10 µM [rising, partial curve, poor fit]
CCn1c(SCC(=O)Nc2cc(C)on2)nnc1-c1ccc(OC)cc1 | 2.51 µM [falling, full curve] | –
C=Cc1c(C)c2cc3nc(cc4[nH]c(cc5nc(cc1[nH]2)C(C)=C5CCC(=O)O)c(CCC(=O)OC)c4C)[C@@]1(C)C3=CC=C(C(=O)OC)[C@H]1C(=O)OC (tested in a mixture with another compound) | – | 0.0178 µM [falling, full curve, poor fit]
O=c1nc2s/c(=C\c3ccc(-c4ccccc4[N+](=O)[O-])o3)c(=O)n2nc1-c1ccccc1 | 0.355 µM [falling, full curve] | 0.1 µM [falling, full curve, poor fit]
N#Cc1ccc(CSc2nnc(Nc3ccccc3)s2)cc1 | 35.5 µM [rising, single point] | –
Cc1nnc(NC(=O)c2ccc(S(=O)(=O)N(C)Cc3ccccc3)cc2)o1 | 12.6 µM [rising, partial curve, poor fit] | –
O=C(Nc1cccnc1)c1ccc(Cl)c(S(=O)(=O)N2CCCCCC2)c1 | 12.6 µM [rising, partial curve] | –
COc1ccccc1C(=O)NNC(=S)NC(=O)c1ccco1 | 7.08 µM [rising, partial curve] | –
CCOC(=O)N1CCN(Cc2ccc(O)c3ncccc23)CC1 | – | 7.94 µM [falling, partial curve]
COc1ccnc(Oc2ccc(F)cc2)c1C(=O)N/C=N/OCc1ccc(Cl)cc1Cl | 15.8 µM [rising, single point] | –
COc1ccccc1N1CCN(C(=O)C2CCC(Cn3c(=S)[nH]c4ccccc4c3=O)CC2)CC1 (stereo not given) | 3.55 µM [rising, single point] | 2.24 µM [rising, partial curve]
Cc1nn(C)cc1CN(C)C(=O)c1sc2cccc(Cl)c2c1Cl | 20 µM [rising, single point] | –
COc1ccc(S(=O)(=O)c2c(O)c3ccc(C(=O)Nc4ccccc4)cc3[nH]c2=O)cc1 | 0.0224 µM [falling, full curve, poor fit] | –
Cc1ccc(C(=O)Nc2ccc3cn[nH]c3c2)cc1S(=O)(=O)N1CCOCC1 | 0.794 µM [falling, full curve, poor fit] | 0.501 µM [falling, full curve, poor fit]
C(=N\Nc1nc2ccccc2[nH]1)/c1c[nH]c2ccccc12 | 3.55 µM [rising, full curve] | –
O=S(=O)(NC12CC3CC(CC(C3)C1)C2)c1ccc(F)cc1 | 15.8 µM [rising, single point] | –
CC1CCCC(C)N1C(=O)CN1CCN(c2nc(-c3ccc(F)cc3)cs2)CC1 (stereo not given) | 14.1 µM [rising, partial curve] | –
CC(C)CCn1c(Sc2nc3ccccc3s2)nc2c1c(=O)[nH]c(=O)n2C | 35.5 µM [rising, single point] | –
Cc1cccc(-c2noc(CN(C(=O)c3ccc(Br)o3)C(C)C)n2)c1 | 31.6 µM [rising, single point] | 28.2 µM [rising, single point]
CCCC(c1nnnn1Cc1ccccc1)N1CCC(C(N)=O)CC1 (stereo not given) | 2.82 µM [rising, partial curve] | 2.51 µM [rising, partial curve, poor fit]
N#Cc1nc(Cc2ccccc2)oc1NCCCn1ccnc1 | 15.8 µM [rising, single point] | –
Cc1ccc(O)c(C=Nc2cc(C)ccc2O)c1 | 25.1 µM [rising, single point] | 11.2 µM [rising, single point]
CCS(=O)(=O)c1ncc(Cl)c(C(=O)NCc2ccc(OC)cc2)n1 | 5.62 µM [falling, single point] | 6.31 µM [falling, full curve]

Taken from above.
For AC50 [1], Cc1nn(C)cc1CN(C)C(=O)c1sc2cccc(Cl)c2c1Cl shows 20 µM [rising, single point]
For AC50 [1], CCn1c(SCC(=O)Nc2cc(C)on2)nnc1-c1ccc(OC)cc1 shows 2.51 µM [falling, full curve]
